The values that follow come from publication PMC9814191.

The target of the experiment is T1, Fc-tagged purified human recombinant TLT-1 (TREM-like transcript 1) (human) (UniProt Q86YW5).
T1 sequence: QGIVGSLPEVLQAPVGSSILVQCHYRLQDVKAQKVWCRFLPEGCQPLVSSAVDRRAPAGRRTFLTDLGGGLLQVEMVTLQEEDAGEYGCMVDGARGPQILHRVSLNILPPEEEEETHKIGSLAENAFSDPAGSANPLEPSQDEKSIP
Briefly: co-IP; intact Jurkat cells incubated 15 min with Fc-tagged purified TLT-1 or IgG as control; lysate in mild IP lysis buffer (not boiled); 1 mg total protein with Protein A/G Dynabeads; immunoblot for individual targets with non-IP lysate as input; only the target purified. In general terms: Immunoblotting shows a protein as a band on a membrane.

No constants are given. Whether binding was seen depends on the method and setting. In cells and extracts the contact can be indirect. Tags and fused reporters may be left off the sequences shown.

Turning to “TNFR (human (endogenous in Jurkat)) (receptor)”, the binding result is “no binding”.
